From patent US11236094B2, “Substituted pyrrolo[2,1-f][1,2,4]triazines as FGFR inhibitors” (CSPC ZHONGQI PHARMACEUTICAL TECHNOLOGY (SHIJIAZHUANG) CO., …, priority 2017, dated 2022)

Chains of the proteins cited; added tags and fusions are not shown. Residues count along the entry.
UniProt P11362, 22-822: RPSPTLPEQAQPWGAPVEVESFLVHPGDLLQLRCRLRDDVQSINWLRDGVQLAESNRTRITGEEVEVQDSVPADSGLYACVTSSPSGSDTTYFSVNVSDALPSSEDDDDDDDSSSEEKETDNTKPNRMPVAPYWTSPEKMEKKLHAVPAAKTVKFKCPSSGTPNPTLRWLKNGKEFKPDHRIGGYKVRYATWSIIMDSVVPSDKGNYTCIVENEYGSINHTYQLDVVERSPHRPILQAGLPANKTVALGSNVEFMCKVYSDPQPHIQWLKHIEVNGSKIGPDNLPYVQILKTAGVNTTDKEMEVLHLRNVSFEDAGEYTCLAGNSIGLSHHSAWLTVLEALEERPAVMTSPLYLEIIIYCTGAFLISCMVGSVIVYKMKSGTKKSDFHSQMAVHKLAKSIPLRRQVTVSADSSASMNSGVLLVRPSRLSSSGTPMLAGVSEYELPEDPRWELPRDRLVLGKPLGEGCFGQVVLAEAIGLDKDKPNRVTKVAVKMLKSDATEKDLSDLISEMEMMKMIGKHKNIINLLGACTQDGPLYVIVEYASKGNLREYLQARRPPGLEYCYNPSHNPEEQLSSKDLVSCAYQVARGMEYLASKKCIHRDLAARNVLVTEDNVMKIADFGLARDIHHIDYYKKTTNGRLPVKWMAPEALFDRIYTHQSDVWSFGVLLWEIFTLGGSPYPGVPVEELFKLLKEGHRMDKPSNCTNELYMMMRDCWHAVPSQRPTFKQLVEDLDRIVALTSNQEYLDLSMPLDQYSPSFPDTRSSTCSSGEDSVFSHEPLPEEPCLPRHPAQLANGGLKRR
UniProt P22455, 22-802: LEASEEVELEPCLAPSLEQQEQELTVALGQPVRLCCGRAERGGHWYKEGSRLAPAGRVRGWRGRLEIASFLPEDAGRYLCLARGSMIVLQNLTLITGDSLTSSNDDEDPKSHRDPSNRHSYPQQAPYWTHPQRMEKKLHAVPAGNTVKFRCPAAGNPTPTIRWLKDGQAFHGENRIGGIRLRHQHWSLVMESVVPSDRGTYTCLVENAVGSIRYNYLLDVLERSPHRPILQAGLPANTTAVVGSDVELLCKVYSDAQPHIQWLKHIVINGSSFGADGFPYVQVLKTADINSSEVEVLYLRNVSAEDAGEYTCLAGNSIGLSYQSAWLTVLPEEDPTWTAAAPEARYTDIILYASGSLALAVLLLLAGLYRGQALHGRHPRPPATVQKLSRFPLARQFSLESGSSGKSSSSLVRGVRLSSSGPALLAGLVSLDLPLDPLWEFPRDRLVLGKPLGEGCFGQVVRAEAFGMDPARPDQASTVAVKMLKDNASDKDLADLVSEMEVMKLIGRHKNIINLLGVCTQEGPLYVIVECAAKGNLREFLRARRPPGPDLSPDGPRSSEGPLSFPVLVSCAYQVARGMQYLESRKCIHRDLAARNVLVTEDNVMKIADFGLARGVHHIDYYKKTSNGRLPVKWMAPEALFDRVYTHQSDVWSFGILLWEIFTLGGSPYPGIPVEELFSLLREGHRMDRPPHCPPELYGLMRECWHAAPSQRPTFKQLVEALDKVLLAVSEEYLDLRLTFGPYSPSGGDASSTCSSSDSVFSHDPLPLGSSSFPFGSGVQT

Key:
human FGFR1 = human FGFR1 (Homo sapiens, UniProt P11362); assay: 33P isotope-labeled kinase activity test, wild-type FGFR1
human FGFR4 = human FGFR4 (Homo sapiens, UniProt P22455); assay: 33P isotope-labeled kinase activity test, wild-type FGFR4; conditions: 33P-ATP 100 μM, 120 minutes

CCC(=O)N1CC[C@H](n2nc(C#Cc3cc(OC)cc(OC)c3)c3c(N)ncnc32)C1 [Reference Example 2, reference compound]
IC50 (human FGFR1): 0.57 µM
IC50 (human FGFR4): 8.75 µM
